According to PubChem BioAssay AID2551 (National Center for Advancing Translational Sciences (NCATS), 2010):
Out of some 310,000 compounds screened, about 17,000 (5.5%) were called active. This list was built around the results that the source calls inconclusive (neither active nor inactive); the mix of calls is not that of the screen. The call rests on the fitted dose curve; in most records, active means well fitted inhibition curve with a large enough effect; inconclusive means small, poorly fitted or top-dose-only effect, or effect the other way; inactive means no such curve, though single readings can be large or run the other way. Potencies beside an inconclusive call are fits to weak or partial responses and may not hold up.

The chains behind the UniProt entries cited, without tags or fusion partners. Where a name states a change or a piece, a line headed by the entry shows the natural chain unless it says otherwise.
UniProt P51450: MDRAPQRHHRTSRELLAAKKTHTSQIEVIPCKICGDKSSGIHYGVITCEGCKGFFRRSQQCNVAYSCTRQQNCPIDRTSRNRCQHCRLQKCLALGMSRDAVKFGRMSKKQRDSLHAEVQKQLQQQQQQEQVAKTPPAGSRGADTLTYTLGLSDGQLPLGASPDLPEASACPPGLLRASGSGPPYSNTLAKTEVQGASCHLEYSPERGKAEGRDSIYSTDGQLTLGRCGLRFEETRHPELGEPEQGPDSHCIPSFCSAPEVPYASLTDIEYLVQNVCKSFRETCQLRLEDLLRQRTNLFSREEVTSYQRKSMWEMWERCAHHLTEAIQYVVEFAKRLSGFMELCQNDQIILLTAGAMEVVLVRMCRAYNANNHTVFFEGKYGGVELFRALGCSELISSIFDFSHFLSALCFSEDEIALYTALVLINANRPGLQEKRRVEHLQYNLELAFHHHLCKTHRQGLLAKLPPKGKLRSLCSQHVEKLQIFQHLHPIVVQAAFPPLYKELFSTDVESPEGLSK

target: Nuclear receptor ROR-gamma (Mus musculus) (UniProt P51450); assay: qHTS for inhibitors of ROR gamma transcriptional activity; details: Drosophila S2 Gal4-RORgamma UAS-luciferase reporter, 20 h; activity change, negative = inhibition: at 53.6 µM (top of the series); further: nearly all actives have a fitted effect of over 60% in size
Method in brief: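 Stable Schneider cell line, Gal4 DNA-binding domain fused to ROR gamma, UAS-luciferase. Cmpd 1 hr RT → CuSO4 700 uM final → 20 hr RT → luciferase reagent 10 min → luminescence.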
On the % scale 0 is the no-effect control and ±100 the full control effect; potency means the concentration at half of the fitted maximal effect.

Potency, inconclusive:
COCCNC(=O)c1ccccc1NC(=O)c1ccc(Cl)c(S(=O)(=O)Nc2ccc(C)cc2C)c1 15.8 µM [activator, single point], COC(=O)c1ccc(C(=O)Nc2ccc(N)cc2N)cc1 35.5 µM [inhibitor, single point], Cc1ccccc1OCCn1cc(C=O)c2ccccc21 12.6 µM [activator, single point], O=C(NCC(=O)N(Cc1ccccc1)C(C(=O)NC1CCCCC1)c1ccco1)c1ccco1 (centres undefined) 31.6 µM [activator, single point], NNc1nc2c(-c3ccc(F)cc3)nnn2c2ccccc12 15.8 µM [inhibitor, single point], CSc1ccccc1NC(=O)c1cnccn1 35.5 µM [inhibitor, single point], O=C(c1ccc(NS(=O)(=O)c2ccc3c(c2)OCCO3)cc1)N1CCCCC1 10 µM [activator, partial curve], C=CCNC(=S)NNC(=O)c1ccco1 10 µM [inhibitor, partial curve], CCCCCNCC(=O)Nc1cccc(C(=O)Nc2cccc(C(F)(F)F)c2)c1 35.5 µM [inhibitor, single point], c1ccc(CCNc2ccnc3cc4ccccc4cc23)cc1 35.5 µM [inhibitor, single point], COc1ccc(/C=C(\C#N)C(=O)NCCc2ccccc2)cc1OCc1ccccc1 11.2 µM [activator, partial curve, poor fit], O=C(c1cc(COc2cccc3cnccc23)on1)N1CCC(c2ccccc2Cl)C1 (centres undefined) 35.5 µM [activator, single point], NC(=O)CSc1nnc(-c2ccc(S(=O)(=O)N3CCOCC3)cc2)n1CC1CCCO1 (centres undefined) 0.0501 µM [inhibitor, partial curve, poor fit], Cc1cc(=O)[nH]c2n[nH]c(-c3ccccc3)c12 3.55 µM [activator, single point], COc1ccc(Cl)cc1S(=O)(=O)Oc1ccc(NC(C)=O)cc1 0.891 µM [inhibitor, single point], CCCC(=O)N1CCN(c2ccc([N+](=O)[O-])cc2Cl)CC1 35.5 µM [activator, single point], COc1cccc(Cn2cnc3c(NS(=O)(=O)c4ccc(Cl)cc4)c(C)c(C)cc32)c1 6.31 µM [activator, single point], Cc1ccc(-c2cc(C(=O)N(C)Cc3cnn(C)c3C)c3cc(Br)ccc3n2)cc1 17.8 µM [activator, single point], COc1ccc(O[C@H]2C=C[C@@H](c3ccccc3)O[C@@H]2CO/N=C(\C)CCN2CCCCc3nc(C)c(C)cc32)cc1 25.1 µM [inhibitor, single point], CC(Cc1n[nH]c(=S)n1N)c1ccccc1 (centres undefined) 35.5 µM [inhibitor, single point], Clc1ccc(-c2ccc(/C=N/Nc3cc(N4CCOCC4)nc(N4CCOCC4)n3)o2)cc1 0.141 µM [activator, full curve, poor fit], NC(=O)C1=C[C@@H](c2ccc(Br)cc2)C[C@@H](OCc2ccc(CO)cc2)O1 31.6 µM [activator, single point], COc1ccc(NC(=O)CSc2nnc(Cc3cccn3C)n2-c2ccc(F)cc2)cc1OC 11.2 µM [inhibitor, single point], NC(=O)c1cc2c3ccccc3ccn2c1-c1ccccc1 25.1 µM [inhibitor, partial curve, poor fit], CCCCn1c(CCNC(=O)c2cccs2)nc2ccccc21 11.2 µM [inhibitor, single point], Nc1nonc1C(=O)NCCNCc1cc(Br)ccc1OCc1ccccc1F 7.08 µM [inhibitor, partial curve], COCCC(=O)N1CCC(Oc2ccc(C(=O)N(C)CCCC3CCCC3)cc2)CC1 14.1 µM [activator, partial curve], COc1ccc2c(C)c(C(=O)N3CCN(Cc4ccccc4)CC3)oc2c1 14.1 µM [activator, single point], COCCn1c(=S)[nH]c2cc(C(=O)NCC3CCCO3)ccc2c1=O (centres undefined) 14.1 µM [activator, single point], O=C1N=C2SCCN2/C1=C\c1c(Cl)cccc1Cl 35.5 µM [inhibitor, single point], COc1ccc2cc(C(=O)NCc3ccccc3)c(=Nc3ccc(C(=O)O)cc3)oc2c1 1 µM [inhibitor, full curve], COCCn1c(SCCCC(=O)c2ccc(Br)cc2)nnc1-c1ccncc1 12.6 µM [activator, single point], O=C(N/C(=C/C=C/c1ccccc1)C(=O)N1CCOCC1)c1ccccc1Cl 0.005 µM [activator, full curve, poor fit], COc1ccc(S(=O)(=O)N2CCCC2C(=O)NCC(=O)Nc2cccc(Cl)c2C)cc1 (centres undefined) 10 µM [activator, partial curve], CCn1cc(C(=O)O)c(=O)c2cc(F)c(N3CCN(S(=O)(=O)c4ccc(NC(=O)OC)cc4)CC3)cc21 6.31 µM [inhibitor, single point], Cc1nnc(SCC(=O)Nc2sccc2C#N)n1Cc1ccccc1 35.5 µM [activator, single point], O=C(NC(=S)NCC1CCCO1)c1ccccc1F (centres undefined) 20 µM [inhibitor, single point], O=C(c1coc2ccccc2c1=O)N1CCN(c2cccc(C(F)(F)F)c2)CC1 35.5 µM [activator, single point], Cc1ccc(-c2nc(NCCN(C)C)c3ccccc3n2)cc1 35.5 µM [activator, single point], COc1cccc(-c2nnc3n2N=C(c2cc(OC)ccc2OC)CS3)c1 22.4 µM [inhibitor, single point]

Potency, active:
Nc1nonc1-n1nnc(C(=O)N/N=C/c2cc(Br)cs2)c1-c1ccccc1 6.31 µM, CCn1c(=S)[nH]c2cc(C(=O)OC)ccc2c1=O 12.6 µM, CC(C)(C)C(=O)NC(=S)Nc1ccc(C(F)(F)F)cc1 4.47 µM, Cc1c(C(=O)N/N=C/c2c(O)ccc3ccccc23)nnn1-c1nonc1N 4.47 µM, COc1ccc(CNC(=S)Nc2ccc(F)c(Cl)c2)cc1 7.08 µM, CCOC(=O)c1cnc(-n2nc(C)cc2C)nc1NC(C)c1ccccc1 (centres undefined) 1.41 µM, C/C(=N\NC(=O)C1COc2ccccc2O1)c1ccc(Cl)s1 (centres undefined) 6.31 µM, O=C(NNC(=O)c1ccccc1O)c1ccc(Cl)cc1 8.91 µM, Cc1ccc2cccc(NC(=S)NC(=O)c3c(Br)cnn3C)c2n1 3.98 µM, COc1cnc(-c2ccccn2)nc1Oc1ccc(Cl)cc1 3.55 µM, O=C(NC(=S)NCc1cccnc1)c1cc(Br)ccc1Cl 22.4 µM, NNc1nc(N)c2c(n1)-c1ccccc1CC21CCCC1 17.8 µM, O=C(/C=C/c1ccccc1)NC(=S)Nc1cccnc1 7.08 µM

Activity change, negative = inhibition, inactive:
CNc1nc(Cl)nc(NC(C)(C)C)n1 -6.93%, COc1ccccc1-c1cc(C(=O)N2CCOCC2)no1 -21.9%, COCC(=O)n1nc(NCc2ccc(OC)cc2)nc1NCc1ccc(OC)cc1 10.2%, CN(C)S(=O)(=O)c1cc(NC(=O)CN2C(=O)NC3(CCCc4ccccc43)C2=O)ccc1Cl (centres undefined) 36.9%, COc1ccc2c(C)c(CCC(=O)NC3CC3)c(=O)oc2c1C 7.24%, O=C1c2cccc3cc(Br)cc(c23)C(=O)N1Nc1ccccc1 -19.1%, COC(=O)c1cc(S(=O)(=O)Nc2c(C)cccc2C)cn1C -27.5%, CCc1nnc(NS(=O)(=O)c2ccc(NC(=S)NC(=O)/C=C/c3cccs3)cc2)s1 15.5%, CC(C)(C)NC(=O)C(c1ccc(F)cc1)N(Cc1cccs1)C(=O)c1ccc(CN2CCOCC2)o1 (centres undefined) 28.6%, COc1ccc(C(=O)c2ccc(Br)cc2)c2ccccc12 -19.9%, Cc1cc(C(=O)NCc2ccco2)c2ccccc2n1 7.48%, CCCCOC(=O)c1nnc(-c2ccc(Cl)cc2)o1 1.55%, Cc1oc(-c2ccc(Cl)cc2)nc1CS(=O)CC(=O)NCc1ccc2c(c1)OCO2 (centres undefined) -29.5%, COc1cc(CNC(C)c2ccccc2)cc(Cl)c1OCC(=O)Nc1ccccc1 (centres undefined) -12.4%, Cc1cccc(Oc2ccccc2NC(=O)c2cnccn2)c1 -2.62%, COc1cc(OC)c2c(C)cc(=O)oc2c1C(CCN1CCCC(C)C1)c1ccc(N(C)C)cc1 (centres undefined) -27.2%, Cc1cc(C(C)(C)C)cc(C)c1CCNC(=O)c1ccc[n+]([O-])c1 -32.7%, Cc1noc(/C=C/N(C)C)c1S(=O)(=O)N1CCC(C(=O)O)CC1 -22.4%, COc1cc(/C=C(\C#N)c2nc3ccccc3[nH]2)c([N+](=O)[O-])cc1OCc1ccccc1 31.7%, CC(C)(C)NC(=O)CCN(/N=C/c1ccccc1O)C1=NS(=O)(=O)c2ccccc21 14.1%, N#Cc1c(-c2ccc(Cl)cc2)ccn2nc(C3CCCCC3)nc12 39.4%
